In PMC7862700:
This is a selection; strong and weak results do not stand in their true shares. At the low end of the ranking the order means little.

What follows are sequences tested against SPI1 (UniProt P17947) (assay: DAPPL (digital affinity profiling via proximity ligation, sequencing)). Conditions: 10 mM Tris-HCl pH 7.5, 50 mM NaCl, 1 mM DTT, 4% glycerol, room temperature, 30 min; GST-TFs on glutathione beads, 16-mer random dsDNA library, 0.1% …; high values mean tight binding; double strand, one strand shown; scale: fold enrichment (6-mer frequency, TF over GST control).
Sequence TACTAG has a binding signal of 1.
Work on TGTATC yielded a binding signal of 1.37.
Work on TACTGA yielded a binding signal of 1.02.
ATCTTT showed a binding signal of 1.21.
CTGCCC was tested, and the binding signal was 1.27.
With GCTTAG the binding signal was 1.1.
For TGGCTA, the binding signal was 1.2.
CGTATG showed a binding signal of 1.07.
AAGTCT showed a binding signal of 1.27.
TTGGGT gave a binding signal of 1.02.
GTATTA was tested, and the binding signal was 1.04.
CGGCTC gave a binding signal of 1.33.
AAGTCC gave a binding signal of 1.36.
In the case of TCCTTG, the binding signal is reported as 1.31.
Sequence AGCCTC has a binding signal of 1.26.
Sequence CCGATA has a binding signal of 1.09.
ATTATG showed a binding signal of 1.25.
Sequence TATCAG has a binding signal of 0.982.
Sequence TTCATC has a binding signal of 1.27.
For TACAAG, the binding signal was 0.952.
Work on GAACCT yielded a binding signal of 1.11.
With GATTTC the binding signal was 1.67.
Sequence TACATT has a binding signal of 1.14.
With ATGAGC the binding signal was 1.13.
CGAAAA gave a binding signal of 1.1.
TAATTT gave a binding signal of 1.38.
With AATCCC the binding signal was 1.26.
Work on CGCTAC yielded a binding signal of 1.16.
Work on CACTTG yielded a binding signal of 1.39.
AATAGA showed a binding signal of 1.08.
CTTATC gave a binding signal of 1.2.
CGAAAC was tested, and the binding signal was 1.21.
Work on CTGGCC yielded a binding signal of 1.28.
Work on AATCGA yielded a binding signal of 0.969.
Work on TATTAT yielded a binding signal of 1.2.
